According to the supplement of paper PMC10735217:
The list shows a part of the results. This data set is noisy: repeats of one test often differ as much as different tests do.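 In a drug-repurposing library screen, luminescence reads luciferase driven by eight TEAD-binding elements, stably integrated into human kidney-derived cells. Compounds scoring over five robust Z scores above the plate mean are called hits.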

Tested on: HEK293A TEAD-LUC reporter
Assay: TEAD-luciferase reporter activity (YAP activation), robust Z score vs plate; higher = stronger YAP/TEAD activation
Conditions: 24 h

## CC(C)Cc1sc(N)nc1-c1ccc(P(=O)(O)O)o1
Compound concentration: 200 nM
  TEAD-luciferase reporter activity: inactive: -0.8
Compound concentration: 2 uM
  TEAD-luciferase reporter activity: inactive: 1.16
Compound concentration: 10 uM
  TEAD-luciferase reporter activity: inactive: -0.874

## CNC(=O)c1c(I)c(C(=O)NCC(=O)Nc2c(I)c(C(=O)O)c(I)c(C(=O)NCCO)c2I)c(I)c(N(C)C(C)=O)c1I [Ioxaglic Acid]
Compound concentration: 200 nM
  TEAD-luciferase reporter activity: inactive: -1.5
Compound concentration: 2 uM
  TEAD-luciferase reporter activity: inactive: 0.883
Compound concentration: 10 uM
  TEAD-luciferase reporter activity: inactive: 0.132

## O=c1[nH]c(=O)n([C@@H]2O[C@H](CO)[C@@H](O)[C@@H]2F)cc1I [fialuridine]
Compound concentration: 200 nM
  TEAD-luciferase reporter activity: inactive: 3.81
Compound concentration: 2 uM
  TEAD-luciferase reporter activity: inactive: -0.257
Compound concentration: 10 uM
  TEAD-luciferase reporter activity: inactive: 0.74

## COc1cccc2c1CC(N)CS2 (centres undefined)
Compound concentration: 200 nM
  TEAD-luciferase reporter activity: inactive: -0.523
Compound concentration: 2 uM
  TEAD-luciferase reporter activity: inactive: -0.643
Compound concentration: 10 uM
  TEAD-luciferase reporter activity: inactive: -0.649

## CC(C)(C)c1cc(/C(=N/O)c2ccccc2)cc(C(C)(C)C)c1O
Compound concentration: 200 nM
  TEAD-luciferase reporter activity: inactive: -0.298
Compound concentration: 2 uM
  TEAD-luciferase reporter activity: inactive: -1.57
Compound concentration: 10 uM
  TEAD-luciferase reporter activity: inactive: -1.96

## O=C1[O][Cr]23([NH]C1Cc1cnc[nH]1)([NH]C(Cc1cnc[nH]1)C(=O)[O]2)[NH]C(Cc1cnc[nH]1)C(=O)[O]3 (centres undefined) [Chromium histidinate]
Compound concentration: 200 nM
  TEAD-luciferase reporter activity: inactive: -0.923
Compound concentration: 2 uM
  TEAD-luciferase reporter activity: inactive: -0.126
Compound concentration: 10 uM
  TEAD-luciferase reporter activity: inactive: 2.28

## CN(CCCCCCCCCCN(C)C(=O)Oc1cccc([N+](C)(C)C)c1)C(=O)Oc1cccc([N+](C)(C)C)c1
Compound concentration: 200 nM
  TEAD-luciferase reporter activity: inactive: -0.189
Compound concentration: 2 uM
  TEAD-luciferase reporter activity: inactive: -0.0884
Compound concentration: 10 uM
  TEAD-luciferase reporter activity: inactive: -0.603

## OCCN1CCN(CC/C=C2\c3ccccc3Sc3ccc(Cl)cc32)CC1
Compound concentration: 200 nM
  TEAD-luciferase reporter activity: inactive: 1.24
Compound concentration: 2 uM
  TEAD-luciferase reporter activity: inactive: -1.7
Compound concentration: 10 uM
  TEAD-luciferase reporter activity: inactive: 0.159

## CC1C(C2C(F)CC(=C(N)O)C3=NC4=C(CC[C@H](C(C)(C)O)C4)C32)CCCC1N1C(=O)C2CCCC(F)C2N(C)C1=O (some centres undefined)
Compound concentration: 200 nM
  TEAD-luciferase reporter activity: inactive: -0.39
Compound concentration: 10 uM
  TEAD-luciferase reporter activity: inactive: -0.857

## N[C@H]1CC[C@H](CNC(=O)[C@@H]2CCCN2C(=O)C2(O)c3ccccc3-c3ccccc32)CC1
Compound concentration: 200 nM
  TEAD-luciferase reporter activity: inactive: 2.01
Compound concentration: 2 uM
  TEAD-luciferase reporter activity: inactive: -0.798
Compound concentration: 10 uM
  TEAD-luciferase reporter activity: inactive: 1.77

## CN(C)C/C=C/C(=O)Nc1cc2c(Nc3ccc(F)c(Cl)c3)ncnc2cc1C#C[C@@H]1[C@H]2COC[C@@H]12
Compound concentration: 200 nM
  TEAD-luciferase reporter activity: inactive: -2.87
Compound concentration: 2 uM
  TEAD-luciferase reporter activity: inactive: -1.06
Compound concentration: 10 uM
  TEAD-luciferase reporter activity: inactive: -1.34

## Cc1ccc2c(c1)c1c3n2CCNC3CCC1 (centres undefined) [pirlindole]
Compound concentration: 200 nM
  TEAD-luciferase reporter activity: inactive: -1.94
Compound concentration: 2 uM
  TEAD-luciferase reporter activity: inactive: 1.5
Compound concentration: 10 uM
  TEAD-luciferase reporter activity: inactive: 2.29

## OCC(O)C(O)C(O)C(O)CO (centres undefined) [mannitol]
Compound concentration: 2 uM
  TEAD-luciferase reporter activity: inactive: -2.09

## CC(=O)NCCC(=O)NC(Cc1c[nH]cn1)C(=O)O (centres undefined) [N-Acetylcarnosine]
Compound concentration: 200 nM
  TEAD-luciferase reporter activity: inactive: -0.0233
Compound concentration: 2 uM
  TEAD-luciferase reporter activity: inactive: -0.548
Compound concentration: 10 uM
  TEAD-luciferase reporter activity: inactive: 0.646

## CC(C)CN(Cc1ccccc1-c1ccccc1)[C@@H]1C[C@@H](CNC(=O)/C=C/c2ccc(/C=C3\SC(=O)NC3=O)cc2)N(C(=O)c2ccccc2C(=O)c2ccc(F)cc2F)C1
Compound concentration: 200 nM
  TEAD-luciferase reporter activity: inactive: -1.37
Compound concentration: 2 uM
  TEAD-luciferase reporter activity: inactive: -1.29
Compound concentration: 10 uM
  TEAD-luciferase reporter activity: inactive: -0.678

## Cc1nn(C)c(NC(=O)Cn2c(C(C)C)nc3ccccc32)c1-c1ccc(Cl)cc1F
Compound concentration: 200 nM
  TEAD-luciferase reporter activity: inactive: -0.986
Compound concentration: 2 uM
  TEAD-luciferase reporter activity: inactive: 0.375
Compound concentration: 10 uM
  TEAD-luciferase reporter activity: inactive: 0.721

## CCOP(=O)(Cc1ccc(NC(=O)[C@H]2Cc3cc4c(cc3C(=O)[C@H](C)S2)OCO4)cc1)OCC
Compound concentration: 200 nM
  TEAD-luciferase reporter activity: inactive: -1.36
Compound concentration: 2 uM
  TEAD-luciferase reporter activity: inactive: -1.45
Compound concentration: 10 uM
  TEAD-luciferase reporter activity: active: 17.8

## N#CCNC(=O)c1ccc(-c2ccnc(Nc3ccc(N4CCOCC4)cc3)n2)cc1 [momelotinib]
Compound concentration: 2 uM
  TEAD-luciferase reporter activity: inactive: 0.1

## N#CCNC(=O)c1ccc(-c2ccnc(Nc3ccc(N4CCOCC4)cc3)n2)cc1 [Momelotinib]
Compound concentration: 200 nM
  TEAD-luciferase reporter activity: inactive: -1.28
Compound concentration: 10 uM
  TEAD-luciferase reporter activity: inactive: 1.9

## Cc1c(NC(=O)c2cccnc2)c(=O)n(-c2ccccc2)n1C
Compound concentration: 200 nM
  TEAD-luciferase reporter activity: inactive: 1.05
Compound concentration: 2 uM
  TEAD-luciferase reporter activity: inactive: -1.51
Compound concentration: 10 uM
  TEAD-luciferase reporter activity: inactive: 0.308

## COCC(COC)n1nnc2c(Nc3c(C)cc(C)cc3Cl)nc(C)cc21
Compound concentration: 200 nM
  TEAD-luciferase reporter activity: inactive: -0.955
Compound concentration: 2 uM
  TEAD-luciferase reporter activity: inactive: 2.14
Compound concentration: 10 uM
  TEAD-luciferase reporter activity: active: 5.55

## CC/C(=C(\C#N)c1ccc(OCCN(CC)CC)cc1)c1ccc(Cl)cc1
Compound concentration: 200 nM
  TEAD-luciferase reporter activity: inactive: -0.635
Compound concentration: 2 uM
  TEAD-luciferase reporter activity: inactive: -0.874
Compound concentration: 10 uM
  TEAD-luciferase reporter activity: inactive: 2.68

## CC(C)C[C@H](NC(=O)[C@H](C)NC(=O)[C@H](CC(=O)O)NC(=O)[C@@H](NC(=O)[C@H](C)NC(=O)[C@H](CCC(=O)O)NC(=O)[C@H](CCC(N)=O)NC(=O)[C@H](CCCNC(=N)N)NC(=O)[C@H](CCCNC(=N)N)NC(=O)[C@H](CC(C)C)NC(=O)[C@H](C)NC(=O)[C@H](CCCCN)NC(=O)[C@@H](N)CCCCN)C(C)C)C(=O)O
Compound concentration: 2 uM
  TEAD-luciferase reporter activity: inactive: 0.358
Compound concentration: 10 uM
  TEAD-luciferase reporter activity: inactive: 2.74

## CCOC=C1NC(=O)c2nccnc2N1
Compound concentration: 200 nM
  TEAD-luciferase reporter activity: inactive: -0.812
Compound concentration: 2 uM
  TEAD-luciferase reporter activity: inactive: -0.416
Compound concentration: 10 uM
  TEAD-luciferase reporter activity: inactive: 0.51

## CO[C@@H]1[C@H](O)[C@@H](CO)O[C@H]1n1cc(C)c(N)nc1=O
Compound concentration: 200 nM
  TEAD-luciferase reporter activity: inactive: -0.411
Compound concentration: 2 uM
  TEAD-luciferase reporter activity: inactive: 1.4
Compound concentration: 10 uM
  TEAD-luciferase reporter activity: inactive: 2.54

## COCC(=O)NC/C=C/c1ccc2ncnc(Nc3ccc(Oc4ccc(C)nc4)c(C)c3)c2c1
Compound concentration: 200 nM
  TEAD-luciferase reporter activity: inactive: -0.545
Compound concentration: 2 uM
  TEAD-luciferase reporter activity: inactive: -1.81
Compound concentration: 10 uM
  TEAD-luciferase reporter activity: inactive: -0.664

## O=c1[nH]c(=O)n(C2CCCO2)cc1F (centres undefined)
Compound concentration: 200 nM
  TEAD-luciferase reporter activity: inactive: 0.0444
Compound concentration: 2 uM
  TEAD-luciferase reporter activity: inactive: -0.188
Compound concentration: 10 uM
  TEAD-luciferase reporter activity: inactive: -0.958

## Nc1nc(N)c2c(OCC3CCN(Cc4c(Cl)cccc4Cl)CC3)cccc2n1
Compound concentration: 200 nM
  TEAD-luciferase reporter activity: inactive: -1.06
Compound concentration: 2 uM
  TEAD-luciferase reporter activity: inactive: -1.79
Compound concentration: 10 uM
  TEAD-luciferase reporter activity: inactive: 0.5

## Cc1nc(NS(=O)(=O)c2ccc(N)cc2)nc(C)c1Br
Compound concentration: 200 nM
  TEAD-luciferase reporter activity: inactive: -0.777
Compound concentration: 2 uM
  TEAD-luciferase reporter activity: inactive: 0.282
Compound concentration: 10 uM
  TEAD-luciferase reporter activity: inactive: -1.02

## CC1Cc2ccccc2N1NC(=O)c1ccc(Cl)c(S(N)(=O)=O)c1 (centres undefined)
Compound concentration: 200 nM
  TEAD-luciferase reporter activity: inactive: -1.03
Compound concentration: 2 uM
  TEAD-luciferase reporter activity: inactive: -0.527
Compound concentration: 10 uM
  TEAD-luciferase reporter activity: inactive: -0.172

## Oc1ccc(C2c3ccc(O)cc3OCC2c2cccc(O)c2)cc1 (centres undefined)
Compound concentration: 200 nM
  TEAD-luciferase reporter activity: inactive: -1.3
Compound concentration: 2 uM
  TEAD-luciferase reporter activity: inactive: 0.976
Compound concentration: 10 uM
  TEAD-luciferase reporter activity: inactive: -0.221

## COC(=O)Nc1nc2ccc(C(=O)C3CC3)cc2[nH]1 [Ciclobendazole]
Compound concentration: 200 nM
  TEAD-luciferase reporter activity: inactive: 1.65
Compound concentration: 2 uM
  TEAD-luciferase reporter activity: inactive: -1.19
Compound concentration: 10 uM
  TEAD-luciferase reporter activity: inactive: 0.32

## CCCNC(C)(C)C(=O)Nc1ccccc1C [Quatacaine]
Compound concentration: 200 nM
  TEAD-luciferase reporter activity: inactive: -2.44
Compound concentration: 10 uM
  TEAD-luciferase reporter activity: inactive: -0.26

## C=CCN1CCCC1CNC(=O)c1cc(S(N)(=O)=O)cc(OC)c1OC (centres undefined)
Compound concentration: 200 nM
  TEAD-luciferase reporter activity: inactive: -0.144
Compound concentration: 2 uM
  TEAD-luciferase reporter activity: inactive: -0.964
Compound concentration: 10 uM
  TEAD-luciferase reporter activity: inactive: -1.36
